A short description of this data set: photo-CIDNP polarizability of ligands: signal-to-noise enhancement (SNE), irradiated vs non-irradiated 1H NMR. The data set is classed as physicochemical. To be noted: 600 MHz; for signal-to-noise enhancement (SNE): ligand 100 μM, 2 s irradiation, phosphate buffer pH 7.0.
Setting [1] is: photosensitizer fluorescein 25 μM, 450 nm.
[2] abbreviates: photosensitizer AT12 25 μM, 532 nm.

For the molecule `CC(C)Nc1nc2ccccc2[nH]1` [N-(propan-2-yl)-1H-1,3-benzodiazol-2-amine], the “signal-to-noise enhancement (SNE)” value under setting [1] came out at 31 and the “signal-to-noise enhancement (SNE)” value (photosensitizer thionine 75 μM, 638 nm) was determined as 7.

For `COc1ccc2[nH]cc(CCNC(C)=O)c2c1` [N-[2-(5-methoxy-1H-indol-3-yl)ethyl]acetamide], the “signal-to-noise enhancement (SNE)” value under setting [2] amounted to 45.

In the case of `CN1CCOC(CNc2nccs2)C1` (centres unmarked) [N-[(4-Methyl-2-morpholinyl)methyl]-1,3-thiazol-2-amine], the “signal-to-noise enhancement (SNE)” value under setting [1] is on record as 100.

Consider `CN(C)CCc1c[nH]c2ccccc12` [[2-(1H-indol-3-yl)ethyl]dimethylamine], for which the “signal-to-noise enhancement (SNE)” value is listed as 14 under setting [2] and 11 (photosensitizer FMN 25 μM, 450 nm).

For the molecule `CCNCc1cccc2[nH]ccc12` [ethyl[(1H-indol-4-yl)methyl]amine], the “signal-to-noise enhancement (SNE)” value under setting [1] came out at 25.

With `Cc1cccc(-c2nc(C(=O)O)c(C)[nH]2)c1` [ligand 3-1, 5-methyl-2-(3-methylphenyl)-imidazole-4-carboxylic acid], the “signal-to-noise enhancement (SNE)” value under setting [2] came out at 9.

As to `O=C1NCCCc2c1oc1ccc(O)cc21` [ligand 3-4, 4-hydroxy-8-oxa-11-azatricyclo[7.5.0.0^2,7]tetradeca-1 (9),2,4,6-tetraen-10-one], the “signal-to-noise enhancement (SNE)” value under setting [1] is 22.

For `C[C@@H]1CCN(C(=O)CC#N)C[C@@H]1N(C)c1ncnc2[nH]ccc12` [tofacitinib, 3-[(3R,4R)-4-methyl-3-[methyl({7H-pyrrolo[2,3-d]pyrimidin-4-yl})amino]piperidin-1-yl]-3-oxopropanenitrile], under setting [1], the “signal-to-noise enhancement (SNE)” value came to 68. Further, for the setting “tofacitinib 100 μM, fluorescein 25 μM, 532 nm, 1 W, 4 s”, the “photo-CIDNP activity of ligand” value was “photo-CIDNP active ligand”.

Values taken from patent US20240345008A1 (Eth Zurich, priority 2021, published 2024).
